This assay is described as follows: qHTS Assay for Lipid Storage Modulators in Drosophila S3 Cells.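 On cell number change: cells counted by Cell Tracker Red CMTPX staining in the red channel.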 Particulars: BODIPY lipid droplet fluorescence, 18-24 h; for cell number change: measured here: cell count max response, cells fed with added oleic acid. In short, it runs like this:
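Laser-scanning cytometry quantifies lipid droplet accumulation (500–530 nm total intensity; droplet/cell object ratio) in oleic acid-fed (400 uM added) Drosophila S3 cells treated with a concentration series. 20 uM Triacsin C defined 100% inhibition.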
On the technique in general: In qHTS, concentration-response curves come from the screen itself.

Setting [1] is: measured here: cell number channel AC50, cells fed with added oleic acid.
Where [2] appears, read: measured here: lipid fluorescence (Fed channel) AC50, cells fed with added oleic acid.

This is one part of the list. These are further read-outs of the screen, such as a control signal, another cell line or another target. No call is given for them. Most of these compounds were active or inconclusive in the main read-out, so they are no random draw. Potencies come from curve fits of mixed quality, noted in brackets.

For the compound `Cc1nn(-c2ccccc2)c(NC(=O)c2ccccc2)c1Br`, the cell number change is -38.1%. In addition, the AC50 under setting [1] is 7.31 µM [falling, single point].

In the case of `C#CCn1c(=NC(=O)CSCC(=O)N2CCOCC2)sc2ccccc21`, the cell number change came out at 11.8%. Under setting [2], the AC50 was 0.651 µM [rising, full curve].

In the case of `C#CCOCCOCCOCCNc1nc(N2CCN(C(=O)CCCCCCCCCCNC(=O)Cn3cc(CCCCCN)nn3)CC2)nc(N2CCN(C(=O)CCCCCCCCCCNC(=O)[C@H]([C@@H](C)CC)n3cc(CCCCCN)nn3)CC2)n1`, the cell number change is -89.7%. Also, under setting [1], the AC50 is 16.4 µM [falling, partial curve].

As for `CS(=O)(=O)c1ccc(C(=O)NNC(=O)c2ccccc2-n2cccc2)cc1`, the cell number change turned out to be 7.98%. Further, under setting [2], the half-maximal activity concentration (AC50) was 0.00461 µM [falling, full curve, poor fit].

On to `O=C(NCCCO)c1cc2c([nH]c3ccccc32)c(-c2ccccc2)n1`, for which the half-maximal activity concentration (AC50) under setting [2] is 29.1 µM [rising, single point].

As to `O=C(CN1CCOCC1)Nc1ccc(Cl)cc1`, the cell number change amounted to 3.65%.

Consider `NNC(=O)c1ccccc1OCc1ccccc1`, for which the cell number change came out at 17.6%. The AC50 under setting [1] was 0.651 µM [rising, full curve, poor fit]. Moreover, under setting [2], the AC50 is 3.66 µM [rising, partial curve, poor fit].

Take `O=C(NC1CCCC1)C(c1ccccc1)N(Cc1ccccc1)C(=O)c1csnn1` (stereo unspecified): the cell number change is -21%. Further, the AC50 under setting [2] was 6.51 µM [falling, single point].

For `CC(=O)c1sc(N2CCOCC2)nc1-c1ccccc1`, the cell number change is -32%.

Regarding `CS/C(=N\S(=O)(=O)c1ccc(N)cc1)NS(=O)(=O)c1cccs1`, the cell number change was -26.9%. Besides, the AC50 under setting [2] was 18.4 µM [falling, partial curve].

For `O=C1CNC(=O)c2c(nc3n2CCC3)N1`, the cell number change is -14.7%. Besides, under setting [2], the AC50 is 0.0651 µM [falling, full curve, poor fit].

As for `COC(=O)c1cc(OC)c(OC)cc1NC(=O)c1ccoc1C`, the AC50 was 1.46 µM [rising, partial curve] under setting [1] and 1.64 µM [rising, partial curve] under setting [2].

Take `COC(=O)c1c(NC(=O)COC(=O)CCc2ccc(S(=O)(=O)N3CCOCC3)cc2)sc2c1CCC2`: the cell number change worked out at 48.6%. Besides, the AC50 under setting [1] was 0.58 µM [rising, full curve]. The AC50 under setting [2] was 29.1 µM [rising, single point].

For `O=c1cc(-c2ccccc2)[nH]n1-c1nc2ccccc2[nH]1`, the cell number change came to 1.54%.

For the compound `CC(=O)SCC(=O)N=c1sc2cc(F)ccc2n1C`, the cell number change is -18.4%.

Take `O=Cc1ccc(N2CCCC2)c([N+](=O)[O-])c1`: the cell number change was -36.1%.

On to `COc1ccccc1N1CCN(c2nccc(C)n2)CC1`, for which the cell number change amounted to 4.65%. Also, the AC50 under setting [2] is 0.0058 µM [rising, full curve, poor fit].

Take `CCN(C1CCCCC1)S(=O)(=O)CCNC(=O)c1ccc2c(c1)OCO2`: the cell number change is -39.5%. For the same compound, the AC50 under setting [1] is 16.4 µM [falling, partial curve]. Further, under setting [2], the AC50 is 1.46 µM [falling, partial curve].

Regarding `CCn1c2ccc(CC(=O)O)cc2c2cc(CC(=O)O)ccc21`, the cell number change is -7.95%. The AC50 under setting [2] was 0.58 µM [falling, full curve].

Regarding `Cc1ccc(NC(=O)COC(=O)/C=C/c2cccs2)cc1`, the cell number change amounted to 5.34%. Besides, the half-maximal activity concentration (AC50) under setting [2] is 29.1 µM [rising, single point].

With `Cc1ccc(N2C(=O)C(NC(=O)c3ccccc3)(C(F)(F)F)C3=C2CC(C)(C)CC3=O)cc1` (stereo unspecified), the cell number change is -21.7%.

With `CS(=O)(=O)N1CCc2cc(C(=O)N3CCN(c4cccc(Cl)c4)CC3)ccc21`, the cell number change was -10.9%. Moreover, the AC50 under setting [2] is 0.58 µM [rising, single point].

As to `N#CC1=C(N)OC2=C(C(=O)CCC2)C1c1ccccc1` (stereo unspecified), the cell number change is -37.8%. Moreover, the AC50 under setting [1] was 29.1 µM [falling, partial curve, poor fit]. For the same compound, the AC50 under setting [2] was 0.00461 µM [falling, full curve, poor fit].

In the case of `Cc1ccc(S(=O)(=O)N2CCCOC2CNC(=O)C(=O)NC2CCCCC2)cc1` (stereo unspecified), the cell number change was -4.15%. The half-maximal activity concentration (AC50) under setting [2] is 6.51 µM [falling, single point].

As for `CC(C)=CCC/C(C)=C/CC/C(C)=N/O`, the cell number change was -12.4%. Under setting [2], the half-maximal activity concentration (AC50) is 6.51 µM [falling, single point].

Regarding `Cc1c(OCC(=O)N2C[C@H]3C[C@@H](C2)c2cccc(=O)n2C3)ccc2c3c(c(=O)oc12)CCC3`, the cell number change was -0.647%. In addition, under setting [2], the AC50 is 6.51 µM [falling, single point].

As for `Cc1ccc2nc(N3CCN(C)CC3)c(C#N)cc2c1`, the cell number change was -59.6%. Further, under setting [1], the half-maximal activity concentration (AC50) is 18.4 µM [falling, single point].

As to `Cc1ccc(C(=O)Nc2ccc(NC(=O)c3cccs3)cc2)cc1[N+](=O)[O-]`, the cell number change is -57.4%. Under setting [1], the AC50 was 8.2 µM [falling, partial curve]. The AC50 under setting [2] was 0.13 µM [falling, single point].

For the compound `Cn1c(=O)c2c(nc(NCc3cccnc3)n2Cc2cccc(C(F)(F)F)c2)n(C)c1=O`, the cell number change was -16.6%. Moreover, the AC50 under setting [2] is 0.92 µM [rising, full curve].

Take `CCOc1cc(/C=C(\C#N)C(=O)Nc2cccc(C(=O)O)c2)cc(Br)c1OC(=O)c1ccc(OC)cc1`: the cell number change came out at 22.7%. The AC50 under setting [2] was 6.51 µM [rising, partial curve].

`COc1ccccc1N(C(=O)c1ccco1)C(C(=O)NC1CCCCC1)c1cc(OC)c(OC)c(OC)c1` (stereo unspecified): the cell number change was -12.8%.

As to `CCN(CC)S(=O)(=O)c1ccc(N2CCCCC2)c(NC(=O)/C(C#N)=C/c2ccc(OC)cc2)c1`, the cell number change stood at 35.6%. Also, under setting [1], the half-maximal activity concentration (AC50) is 2.91 µM [rising, partial curve]. Moreover, under setting [2], the AC50 was 3.26 µM [rising, full curve].

For the compound `CCc1cccc(NS(=O)(=O)c2c(C)nc3scc(C)n3c2=O)c1`, the concentration at half-maximal activity (AC50) under setting [2] was 6.51 µM [falling, single point].

In the case of `O=C(COC(=O)c1cnccn1)Nc1ncc(Cl)cc1Cl`, the cell number change turned out to be 7.5%.

As for `O=C(COC(=O)C1=NN(c2ccccc2)C(=O)CC1)NCc1ccccc1Cl`, the cell number change is -2.17%. Further, the half-maximal activity concentration (AC50) under setting [2] is 0.731 µM [falling, single point].

`COC(=O)c1sc(N)c(C(=O)OC)c1COC(=O)[C@@H](NS(=O)(=O)c1cccc(Cl)c1)C(C)C`: the cell number change was 20.9%.

As for `CC(SCC(=O)NC12CC3CC(CC(C3)C1)C2)C(=O)O` (stereo unspecified), the cell number change was found to be 50%. Also, the AC50 under setting [1] was 29.1 µM [rising, single point].

As to `O=C1NC(=Nc2cccc(O)c2)S/C1=C\c1cccc([N+](=O)[O-])c1`, the cell number change was found to be 8.45%.

For the compound `N#Cc1nc(-c2ccco2)oc1N1CCOCC1`, the cell number change was -19.5%. For the same compound, under setting [1], the AC50 is 6.51 µM [falling, single point].

In the case of `COc1ccc(CC(=O)NCc2nnc(SCC(=O)Nc3nccs3)n2C)cc1`, the cell number change came to 57.7%. Under setting [1], the AC50 was 29.1 µM [rising, single point].

With `COc1ccc(NC(=O)CN2CCN(CC(=O)Nc3ccc(F)cc3F)CC2)cc1`, the cell number change came to 5.56%. Besides, the AC50 under setting [2] was 6.51 µM [falling, partial curve, poor fit].

Turning to `CC(c1ccccc1)N1CC(C(=O)N2CCN(c3ccccc3)CC2)CC1=O` (stereo unspecified), the cell number change was found to be 39.9%. Besides, the half-maximal activity concentration (AC50) under setting [1] was 0.146 µM [rising, partial curve, poor fit].

On to `Cc1ccc(S(=O)(=O)NNC(=O)C(=O)NNc2ccccn2)cc1`, for which the cell number change was -4.27%. Besides, under setting [2], the half-maximal activity concentration (AC50) is 0.082 µM [rising, full curve, poor fit].

Consider `CC1(c2ccccc2Cl)NC(=O)N(CC(=O)NCc2ccco2)C1=O` (stereo unspecified), for which the cell number change is -22.8%. The AC50 under setting [2] was 5.8 µM [rising, single point].

As to `CN1CCN(C(=O)/C(=C/c2cccnc2)NC(=O)c2cccc(Br)c2)CC1`, the AC50 under setting [2] was 0.291 µM [falling, partial curve, poor fit].

For the compound `c1ccc2c(c1)CCN(C1=Nc3cccc4cccc1c34)C2`, the cell number change amounted to 3.66%. In addition, under setting [2], the half-maximal activity concentration (AC50) is 0.00517 µM [falling, full curve, poor fit].

`Cc1cc(NC(=O)c2cc(-c3ccc(Br)cc3)on2)no1`: the cell number change amounted to 22.2%. For the same compound, the AC50 under setting [1] is 0.58 µM [rising, partial curve]. For the same compound, the AC50 under setting [2] is 0.164 µM [rising, full curve, poor fit].

On to `Cc1nnc(N/N=C/c2cc([N+](=O)[O-])c(N3CCC(C)CC3)cc2N2CCC(C)CC2)n1N`, for which the cell number change is -62.8%. The AC50 under setting [2] is 23.1 µM [falling, single point].

Regarding `Cc1cc(C(=O)NNC(=O)Nc2cccc(C(F)(F)F)c2)no1`, the cell number change was -11.1%. Besides, the AC50 under setting [2] was 5.8 µM [falling, partial curve].

As to `COC(=O)[C@@H](NC(=O)NC1CCCc2ccccc21)C(C)C` (stereo partly specified), the cell number change came to 4.38%. Besides, the AC50 under setting [2] is 0.00461 µM [falling, full curve, poor fit].

`C=CCn1c(Cc2csc(N)n2)nnc1SCC(=O)Nc1ccccc1C(F)(F)F`: the cell number change was 75%. Also, under setting [1], the AC50 was 8.2 µM [rising, partial curve]. For the same compound, the AC50 under setting [2] is 14.6 µM [rising, partial curve].

For the compound `CC1CCc2c(sc(NC(=O)Cn3nc(C(F)(F)F)c4c3CCCCC4)c2C#N)C1` (stereo unspecified), the cell number change was -14.3%.

Regarding `O=C(c1ccc(Cl)cc1)n1cnc2ccccc21`, the cell number change is 10.6%.

With `Cc1cc(C)c(NC(=O)CN(C2CCCCC2)C2CCCCC2)c(C)c1`, the cell number change is -60%. Besides, the concentration at half-maximal activity (AC50) under setting [1] was 18.4 µM [falling, partial curve].

As for `C[N+]1(C2CCC3CCC2C3O)CCCC1` (stereo unspecified), the cell number change was determined as 74.3%. Besides, the AC50 under setting [1] was 2.06 µM [rising, partial curve].

In the case of `O=C(O)c1ccc(S(=O)(=O)c2ccccc2)cc1`, the cell number change was 3.11%. Further, the AC50 under setting [2] is 6.51 µM [rising, single point].

As to `Cc1cccc(Nc2nnc(SCc3cc(=O)n4cc(C)ccc4n3)s2)c1`, the cell number change worked out at 7.31%.

`Cc1cc(C)n(-c2ccc(C(=O)Nc3cccc(S(=O)(=O)N(C)C)c3)cc2)n1`: the cell number change was -49.6%. For the same compound, the half-maximal activity concentration (AC50) under setting [1] is 20.6 µM [falling, partial curve]. Also, the AC50 under setting [2] is 11.6 µM [falling, partial curve].

Regarding `CC(=O)N1CCN(S(=O)(=O)c2ccc(C)cc2)C1C(C)C` (stereo unspecified), the cell number change is 4.45%. For the same compound, the concentration at half-maximal activity (AC50) under setting [2] is 5.8 µM [falling, single point].

Take `Cc1cc(C)c2c(n1)sc1c(N3CCCCC3)ncnc12`: the cell number change was -0.516%. For the same compound, under setting [2], the AC50 was 0.116 µM [rising, full curve, poor fit].

Consider `Cc1cccc(C(=O)NCC(=O)NCC(c2ccco2)N2CCCCC2)c1` (stereo unspecified), for which the cell number change was found to be 3.86%. Further, the AC50 under setting [1] is 6.51 µM [falling, single point]. Moreover, the AC50 under setting [2] was 6.51 µM [falling, single point].

A word on the AC50: it is the midpoint of the concentration-response curve, whichever way the signal moves. Low values mean activity at low concentration, high ones activity only at high concentration.

Source of the values: PubChem BioAssay AID2685 (National Center for Advancing Translational Sciences (NCATS), 2010).
